Values of other authors as cited in patent US8158147B2, “Modified release formulations of at least one form of tramadol” (priority 2002, dated 2012).
For at least one compound, name, drawing or mass did not settle the structure.

Details: treatment of mild to moderate pain

COc1cccc([C@@]2(O)CCCC[C@H]2CN(C)C)c1 (racemic) [tramadol, trans-(±)-2-[(dimethylamino)methyl]-1-(3-methoxyphenyl)cyclohexanol]
clinically effective plasma concentration of total tramadol (sum of the (+) and (−) enantiomer): 100 ng/mL
